The record followed here is article PMC2674945.

Protein sequences, listed by entry. Tags and fused reporters are not part of them. Lines headed by an entry give the natural chain unless they say otherwise; changes in a name come on top.
UniProt Q57ZW9: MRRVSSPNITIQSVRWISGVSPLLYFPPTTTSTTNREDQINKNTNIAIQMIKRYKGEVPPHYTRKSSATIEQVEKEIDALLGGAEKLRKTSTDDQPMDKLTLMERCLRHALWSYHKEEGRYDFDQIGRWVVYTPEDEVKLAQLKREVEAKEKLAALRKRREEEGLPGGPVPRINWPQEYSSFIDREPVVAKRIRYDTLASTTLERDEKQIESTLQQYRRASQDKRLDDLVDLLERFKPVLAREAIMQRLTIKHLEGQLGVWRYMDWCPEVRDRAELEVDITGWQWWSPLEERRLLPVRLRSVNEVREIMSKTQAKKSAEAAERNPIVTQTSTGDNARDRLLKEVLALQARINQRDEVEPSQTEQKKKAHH
UniProt Q38CI8: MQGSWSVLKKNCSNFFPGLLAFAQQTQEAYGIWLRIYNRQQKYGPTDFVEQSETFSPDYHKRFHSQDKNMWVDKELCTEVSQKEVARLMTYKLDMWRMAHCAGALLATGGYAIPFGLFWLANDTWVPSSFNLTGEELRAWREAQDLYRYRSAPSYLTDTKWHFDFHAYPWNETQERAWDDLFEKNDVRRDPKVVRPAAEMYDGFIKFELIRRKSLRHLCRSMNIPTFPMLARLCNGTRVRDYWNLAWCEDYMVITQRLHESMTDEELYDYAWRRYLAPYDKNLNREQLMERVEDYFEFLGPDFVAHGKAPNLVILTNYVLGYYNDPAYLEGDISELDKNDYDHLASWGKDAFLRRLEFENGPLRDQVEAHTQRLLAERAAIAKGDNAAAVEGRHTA
UniProt Q586H1: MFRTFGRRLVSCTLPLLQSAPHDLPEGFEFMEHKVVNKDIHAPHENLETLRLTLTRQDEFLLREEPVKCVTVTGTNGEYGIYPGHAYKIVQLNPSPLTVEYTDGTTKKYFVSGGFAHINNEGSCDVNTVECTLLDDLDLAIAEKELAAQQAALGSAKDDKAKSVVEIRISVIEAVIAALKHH
UniProt Q389Z3: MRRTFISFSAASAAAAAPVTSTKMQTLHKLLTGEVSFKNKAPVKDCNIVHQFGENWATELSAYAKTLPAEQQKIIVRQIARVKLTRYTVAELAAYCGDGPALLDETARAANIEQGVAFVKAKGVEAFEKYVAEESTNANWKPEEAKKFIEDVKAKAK
UniProt Q385E4: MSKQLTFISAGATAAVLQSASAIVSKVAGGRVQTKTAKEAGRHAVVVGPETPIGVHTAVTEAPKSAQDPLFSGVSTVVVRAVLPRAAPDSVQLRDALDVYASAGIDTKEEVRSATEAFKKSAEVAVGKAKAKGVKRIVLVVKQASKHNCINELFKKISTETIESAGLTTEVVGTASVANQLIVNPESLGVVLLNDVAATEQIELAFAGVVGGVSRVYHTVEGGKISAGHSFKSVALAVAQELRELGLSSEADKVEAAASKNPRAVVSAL
UniProt Q586X8: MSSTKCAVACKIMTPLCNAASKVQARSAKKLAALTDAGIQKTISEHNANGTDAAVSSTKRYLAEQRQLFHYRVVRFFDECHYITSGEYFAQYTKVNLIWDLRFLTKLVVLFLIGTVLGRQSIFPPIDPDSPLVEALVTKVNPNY
UniProt Q57ZE2: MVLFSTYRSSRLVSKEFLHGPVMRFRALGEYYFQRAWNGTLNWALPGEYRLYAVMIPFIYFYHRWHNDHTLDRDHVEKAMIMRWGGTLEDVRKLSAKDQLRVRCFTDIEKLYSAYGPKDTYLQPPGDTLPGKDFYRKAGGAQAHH
UniProt Q582T1: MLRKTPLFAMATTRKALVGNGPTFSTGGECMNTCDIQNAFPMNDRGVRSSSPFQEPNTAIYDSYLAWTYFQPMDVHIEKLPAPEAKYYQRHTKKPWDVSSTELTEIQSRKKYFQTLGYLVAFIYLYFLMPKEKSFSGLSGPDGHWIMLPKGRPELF
UniProt Q57ZM4: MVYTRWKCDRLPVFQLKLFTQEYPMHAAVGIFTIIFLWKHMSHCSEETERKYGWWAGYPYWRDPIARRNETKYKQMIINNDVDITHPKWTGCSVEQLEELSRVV
UniProt Q57Z84: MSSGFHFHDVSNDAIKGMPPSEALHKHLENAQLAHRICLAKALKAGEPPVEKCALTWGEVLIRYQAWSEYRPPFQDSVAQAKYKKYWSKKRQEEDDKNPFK
UniProt Q57VT0: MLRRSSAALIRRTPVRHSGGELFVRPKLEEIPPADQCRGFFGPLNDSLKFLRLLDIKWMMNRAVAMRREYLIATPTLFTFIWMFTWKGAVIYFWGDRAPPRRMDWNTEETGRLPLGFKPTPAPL

These are yes or no findings as the source states them, for the method shown. In cells and extracts the contact can be indirect. Here binding means that the protein was enriched with, or labelled near, the bait; the list need not be complete. For part of these data: A no says only that the protein was not detected with the bait.

Experiment [1] has as its target TAP-tagged Tb927.5.2930 (Trypanosoma brucei (strain 427 genomic DNA)) (UniProt Q57ZW9). Briefly: affinity purification with mass spectrometry; TAP Method 1: cells lysed with 1% Triton X-100, IgG affinity chromatography, TEV elution, 10-30% glycerol gradient, pooled ~20S (fractions 7-13) and ~40S (fractions 17-21), calmodulin affinity chromatography, LC-MS/MS.
Experiment [2] deals with TAP-tagged Tb10.70.7760 (Trypanosoma brucei (strain 427 genomic DNA)) (UniProt Q38CI8). The description is as above.
The target of experiment [3] is TAP-tagged F0 subunit b (Tb927.5.1710) (Trypanosoma brucei (strain 427 genomic DNA)) (UniProt Q57ZP0). Kind of experiment: affinity purification with mass spectrometry; TAP Method 2: cells lysed with 0.25% then 1.25% NP-40, sequential IgG and calmodulin affinity columns; 10-14.5% SDS-PAGE, Sypro Ruby, MS of individual gel bands.
In experiment [4] the target is TAP-tagged Tb927.5.2930 (Trypanosoma brucei (strain 427 genomic DNA)) (UniProt Q57ZW9). The description is as above.
Experiment [5] addresses TAP-tagged Tb10.70.7760 (Trypanosoma brucei (strain 427 genomic DNA)) (UniProt Q38CI8). Described as above.
The target of experiment [6] is TAP-tagged F0 subunit b (Tb927.5.1710) (Trypanosoma brucei (strain 427 genomic DNA)) (UniProt Q57ZP0). Kind of experiment: affinity purification with mass spectrometry; TAP Method 1: cells lysed with 1% Triton X-100, IgG affinity chromatography, TEV elution, 10-30% glycerol gradient, pooled ~20S (fractions 7-13) and ~40S (fractions 17-21), calmodulin affinity chromatography, LC-MS/MS.

In experiment [7] the target is TAP-tagged Tb927.5.2930 (Trypanosoma brucei (strain 427 genomic DNA)) (UniProt Q57ZW9). Kind of experiment: affinity purification with mass spectrometry; TAP Method 1: cells lysed with 1% Triton X-100, IgG affinity chromatography, TEV elution, 10-30% glycerol gradient, pooled ~10S (fractions 3-5), calmodulin affinity chromatography, LC-MS/MS.
Experiment [8] concerns the target TAP-tagged Tb10.70.7760 (Trypanosoma brucei (strain 427 genomic DNA)) (UniProt Q38CI8). Described as above.
Experiment [9] deals with TAP-tagged F1 subunit β (Tb927.3.1380) (Trypanosoma brucei (strain 427 genomic DNA)). Kind of experiment: affinity purification with mass spectrometry; TAP Method 1: cells lysed with 1% Triton X-100, IgG affinity chromatography, TEV elution, 10-30% glycerol gradient, pooled ~20S (fractions 7-13) and ~40S (fractions 17-21), calmodulin affinity chromatography, LC-MS/MS.
Experiment [10] has the same target. Briefly: affinity purification with mass spectrometry; TAP Method 2: cells lysed with 0.25% then 1.25% NP-40, sequential IgG and calmodulin affinity columns; 10-14.5% SDS-PAGE, Sypro Ruby, MS of individual gel bands.
The target is the same in experiment [11]. Briefly: affinity purification with mass spectrometry; TAP Method 1: cells lysed with 1% Triton X-100, IgG affinity chromatography, TEV elution, 10-30% glycerol gradient, pooled ~10S (fractions 3-5), calmodulin affinity chromatography, LC-MS/MS.
The target in experiment [12] is TAP-tagged F0 subunit b (Tb927.5.1710) (Trypanosoma brucei (strain 427 genomic DNA)) (UniProt Q57ZP0). Described as above.

Consider “F0 subunit b (Tb927.5.1710), endogenous (from UniProt Q57ZP0)”, for which the binding result in [1], in experiment [2], in [3], in experiment [4] and in experiment [5] was “binds” each time.
Consider “F1 subunit δ (Tb927.6.4990) (from UniProt Q586H1)”, for which the binding entry in [6], in [1], in experiment [2], in experiment [3], in experiment [4] and in [5] was “binds” in each case.
Consider Tb10.6k15.0480 (from UniProt Q389Z3), for which the binding result in [6], in [1], in [2], in experiment [3], in experiment [4] and in experiment [5] was “binds” throughout.
For the molecule “Tb10.70.7760, endogenous (from UniProt Q38CI8)”, the binding result in [6] is given as “binds”; in experiment [1], “binds”; in experiment [3] it was “binds”; in [4], “binds”; in experiment [5] it was “no binding”.
For Tb11.02.4120 (from UniProt Q385E4), the binding entry in experiment [7], in [6], in [1], in experiment [2], in experiment [3] and in experiment [4] was “binds” each time. In addition, the binding result in experiment [5] was “binds”.
For Tb927.2.3610 (from UniProt Q586X8), the binding entry in experiment [6], in experiment [1], in [2], in experiment [3], in experiment [4] and in [5] was “binds” each time.
As for Tb927.3.1690 (from UniProt Q57ZE2), the binding result in experiment [6], in experiment [1], in experiment [2], in experiment [3], in experiment [4] and in experiment [5] was “binds” in each case.
Take Tb927.3.2180 (from UniProt Q582T1): the binding entry in experiment [6], in [1] and in experiment [2] was “binds” throughout.
Tb927.3.2880 (from UniProt Q57ZM4): the binding entry in experiment [6], in experiment [1] and in [2] was “binds” throughout.
“Tb927.5.2930, endogenous (from UniProt Q57ZW9)”: the binding result in experiment [6] was “binds”; in experiment [2], “binds”; in [3], “binds”; in experiment [4], “no binding”; in [5], “binds”.
On to Tb927.5.3090 (from UniProt Q57Z84), for which the binding entry in experiment [6], in experiment [1] and in experiment [2] was “binds” each time.
As to Tb927.7.840 (from UniProt Q57VT0), the binding entry in [6], in experiment [1], in experiment [2], in experiment [3], in experiment [4] and in experiment [5] was “binds” in each case.

B1: OSCP (Tb10.6k15.2510) (protein, UniProt Q38AG1 1-255)
chain: MFRRLSSSARAVVAARFYTPPEGLKKLYASDFENSKYPLNIVPSDSVLFAKFLYKAAEEKGNFDNILSDFQKIAAAASKLPIFWERTAVVEKIPEFKQLSEPTFFTLVWMQNNGMLELIQEVAEVYETFVNAKQKKAVAKIFVAPGGEKNVEEARRVAEELHKGLKELADYTLVLKTVVDRTIVKGFAVELAGQYVNKAEGQQKQAGRADEVDYTNLPAPKPQKTVWDDNIETEVLRKYLDGLSQYDMEEAKYGV
With B1, the binding entry in experiment [8], in experiment [9], in [6], in [1], in [2] and in experiment [10] was “binds” each time. Also, the binding entry in experiment [3], in [4] and in experiment [5] was “binds” throughout.

B2: Tb11.47.0022 (protein, UniProt Q387C5 1-169)
chain: MTKYELKMQYFDEWMIRWRKFQTESDWEIEKGRQWWRRFNMAVSGALFCGLVLYTSGTATLKRQYGLPHFFDIGVDGQAKETMLKTLTSRWRYTPQGYGRVLITGVPTYILFVSLEHYRERRRMQQYLQQNTVFGEQMRRLLSTGKIEEYLPVNIKATLPASQQAIYNY
As for B2, the binding result in [9], in [6], in experiment [1], in experiment [2], in [10] and in experiment [3] was “binds” each time. Also, the binding entry in experiment [4] and in experiment [5] was “binds” each time.

B3: F1 subunit γ (Tb10.100.0070) (protein, UniProt Q38CM0 1-305)
chain: MSGKLRLYKEKLEGYNRFYSIVKTIKMVTLAKYRAAQGRIRTRDFSLRYTELAFSKPQASRDAVAAAKNALVYIPITTNRGSCGALNSNIVRCIDSVVSSKMVLMPVGKRGIDSFSKLFPDEFRYGIINDMKESMHFGYATFVIENAYEVSKDADRYQVIFNRFVSAGVQRNAVYNIPSYEKWKEDLADAGSSDNQKNRYLFANALQNEEEQLIRDFFDFHAALAVLNAVGENELSEQAARLVAVEGQLTNISSLQQRTSSLYNKTRQFGITAALIEILSAMSSLEGNAMKGVRRNKFWEGAVTK
As for B3, the binding entry in experiment [11], in experiment [12], in [9], in experiment [6], in experiment [1] and in experiment [2] was “binds” throughout. Moreover, the binding result in [10], in experiment [3], in experiment [4] and in experiment [5] was “binds” each time.

B4: Tb11.03.0475 (protein, UniProt Q387J1 1-106)
chain: MSPKGIRYKPCTHFMSAKAAPKTLHQVRNVAYFFAAWLGVQKGYIEKSANDRLWVEHQRKVRQQNVERQQALDSIKLMQQGVRATTPGQLEGVPAELQQLAEAFTK
Take B4: the binding entry in experiment [9], in experiment [6], in [1], in experiment [2], in experiment [10] and in experiment [3] was “binds” throughout. In addition, the binding entry in [4] and in [5] was “binds” each time.
